Assay results published in patent US10195578B2, “Peptide library production method, peptide library, and screening method” (The University of Tokyo, priority 2010, dated 2019).
Where a name gives a salt, the structure may show the parent alone. Some results were stated once for a whole list of compounds, not compound by compound. For at least one compound, name, drawing or mass did not settle the structure. Where a SMILES comes first, the peptide text is derived from it. Bridges are numbered along the chain shown (N, C = ends). [ ]: non-standard residue; d: D form. The star is where a group is joined. Tfa = O=C(C(F)(F)F)*

Key:
[1] = biological target: T1, SIRT2 (Homo sapiens, UniProt Q8IXJ6); assay: Evaluation of inhibitory activity of peptides against SIRT2 (fluorescence-using system); assay type: biochemical; conditions: read-out: inhibition constant IC50
T1 sequence (Q8IXJ6 1-389): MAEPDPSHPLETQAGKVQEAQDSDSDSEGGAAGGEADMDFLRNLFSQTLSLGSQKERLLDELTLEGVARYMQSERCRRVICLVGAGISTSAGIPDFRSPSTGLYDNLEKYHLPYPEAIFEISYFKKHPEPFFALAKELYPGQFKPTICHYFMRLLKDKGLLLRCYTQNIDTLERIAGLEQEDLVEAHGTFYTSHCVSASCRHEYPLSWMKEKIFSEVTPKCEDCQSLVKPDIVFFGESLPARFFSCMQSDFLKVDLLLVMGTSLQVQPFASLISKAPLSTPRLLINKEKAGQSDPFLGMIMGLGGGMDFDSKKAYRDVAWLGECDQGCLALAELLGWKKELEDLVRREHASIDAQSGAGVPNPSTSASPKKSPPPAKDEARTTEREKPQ
Excerpt: In an evaluation system using fluorescence, the inhibitory activity of the selected peptides against SIRT2 was studied. More specifically, first, peptides to be deacetylated with SIRT2 each having, at both ends thereof, a fluorescent group and a quenching group is deacetylated by mixing with SIRT2. When the resulting peptides are reacted with protease that cleaves only a deacetylated peptide, the quenching group is dissociated from the fluorescent group of only the peptides deacetylated with SIRT2 and fluorescence is emitted. During this deacetylation reaction, presence of an inhibitor against SIRT2 retards the progress of deacetylation of the substrate peptide and fluorescence intensity obtained in the end decreases. This means that the inhibitory ability of the selected peptides can be evaluated by the intensity of fluorescence observed in the end.

[2] = biological target: T1, SIRT2; assay: Dissociation constant Kd of peptides for SIRT2; assay type: binding

SMILES	IC50 [1]	Kd [2]
CC[C@H](C)[C@@H]1NC(=O)[C@H](CCCNC(=N)N)NC(=O)[C@H](Cc2ccc(O)cc2)NC(=O)[C@H](CC(=O)O)NC(=O)[C@H](Cc2c[nH]cn2)NC(=O)[C@@H](Cc2ccc(O)cc2)NC(=O)CSC[C@@H](C(=O)NCC(=O)N[C@@H](CO)C(=O)NCC(=O)N[C@@H](CO)C(=O)NCC(=O)N[C@@H](CO)C(=O)O)NC(=O)[C@@H]2CCCN2C(=O)[C@H](Cc2ccc(O)cc2)NC(=O)[C@H]([C@@H](C)O)NC(=O)[C@H](Cc2c[nH]cn2)NC(=O)[C@H](Cc2ccc(O)cc2)NC(=O)[C@H](CCCNC(=N)N)NC(=O)[C@H](CCCCNC(=O)C(F)(F)F)NC1=O [2D-08, XHDYRIZRYHTYPC] ({CH2CO}-[dY]HDYRIK(Tfa)RYHTYPCGSGSGS-OH; thioether N-14; N-terminus and C-terminus assumed)	≤ 4 nM	≤ 3 nM
CC[C@H](C)[C@@H]1NC(=O)[C@H](CCCNC(=N)N)NC(=O)[C@H](Cc2ccccc2)NC(=O)[C@H](CC(N)=O)NC(=O)[C@H](CO)NC(=O)[C@H](Cc2ccc(O)cc2)NC(=O)CSC[C@@H](C(=O)NCC(=O)N[C@@H](CO)C(=O)NCC(=O)N[C@@H](CO)C(=O)NCC(=O)N[C@@H](CO)C(=O)O)NC(=O)[C@H](CO)NC(=O)[C@H](CO)NC(=O)[C@H](CC(N)=O)NC(=O)[C@H](CO)NC(=O)[C@H](Cc2ccc(O)cc2)NC(=O)[C@H](CCCNC(=N)N)NC(=O)[C@H](CCCCNC(=O)C(F)(F)F)NC1=O [2L-08, XSNFRIZRYSNSSC] ({CH2CO}-YSNFRIK(Tfa)RYSNSSCGSGSGS-OH; thioether N-14; N-terminus and C-terminus assumed)	≤ 4 nM	≤ 3 nM
